The results in this text go back to paper PMC7482824.

Chains of the proteins cited; added tags and fusions are not shown. Residues count along the entry.
UniProt P19438, residues 30-455: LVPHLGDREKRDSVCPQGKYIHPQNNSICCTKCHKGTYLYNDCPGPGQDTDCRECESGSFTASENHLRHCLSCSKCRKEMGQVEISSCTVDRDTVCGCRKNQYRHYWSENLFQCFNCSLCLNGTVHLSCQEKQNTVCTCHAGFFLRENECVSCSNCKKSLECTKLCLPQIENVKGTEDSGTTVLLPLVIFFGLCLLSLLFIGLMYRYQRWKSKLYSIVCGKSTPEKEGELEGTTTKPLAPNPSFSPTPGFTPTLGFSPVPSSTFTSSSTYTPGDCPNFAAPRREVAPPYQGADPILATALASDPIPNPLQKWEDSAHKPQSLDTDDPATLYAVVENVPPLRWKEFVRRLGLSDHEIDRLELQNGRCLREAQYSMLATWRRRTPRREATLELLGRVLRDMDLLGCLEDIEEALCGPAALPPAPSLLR

Results are given in words; binding and its absence hold for the method and conditions named. In cells and extracts the contact can be indirect. Some results given as binding are weak or reduced against the parent protein; the word gives no strength. Sequences can lack the tags named with a protein.

The target in the test is TNFR1 in the co-IP from transfected Huh7 cells (Figure 1E) (UniProt P19438). The test can be described thus: co-IP; Huh7 cells 48 h after transfection with the indicated plasmids; IP with IgG, anti-Flag or anti-TNFR1; western blot. On the technique in general: In western blotting, separated proteins are transferred to a membrane and probed.

B1: Flag-HRG (protein, UniProt P04196 19-525)
chain: VSPTDCSAVEPEAEKALDLINKRRRDGYLFQLLRIADAHLDRVENTTVYYLVLDVQESDCSVLSRKYWNDCEPPDSRRPSEIVIGQCKVIATRHSHESQDLRVIDFNCTTSSVSSALANTKDSPVLIDFFEDTERYRKQANKALEKYKEENDDFASFRVDRIERVARVRGGEGTGYFVDFSVRNCPRHHFPRHPNVFGFCRADLFYDVEALDLESPKNLVINCEVFDPQEHENINGVPPHLGHPFHWGGHERSSTTKPPFKPHGSRDHHHPHKPHEHGPPPPPDERDHSHGPPLPQGPPPLLPMSCSSCQHATFGTNGAQRHSHNNNSSDLHPHKHHSHEQHPHGHHPHAHHPHEHDTHRQHPHGHHPHGHHPHGHHPHGHHPHGHHPHCHDFQDYGPCDPPPHNQGHCCHGHGPPPGHLRRRGPGKGPRPFHCRQIGSVYRLPPLRKGEVLPLPEANFPSFPLPHHKHPLKPDNQPFPQSVSESCPGKFKSGFPQVSMFFTHTFPK
Take B1: the binding entry is “binds”.
